At least one compound was matched to its structure with a doubt left.
System: C. albicans
Test: C. albicans colony formation (CFU viability)
Type: cell-based, Candida albicans
Settings: FIG. 8; p<0.01
Description: Clinical isolates of C. albicans were obtained from the collection of the Department of Microbiology, Ospedale Maggiore di Milano. Cultures of C. albicans were maintained on Sabouraud's agar slants and periodically transferred to Sabouraud's agar plates and incubated for 48 hours at 28° C. To prepare stationary growth-phase yeast, a colony was taken from the agar plate, transferred into 30 ml of Sabouraud-dextrose broth, and incubated for 72 hours at 32° C. Cells were centrifuged at 1000× g for ten minutes, and the pellet was washed twice with distilled water. Cells were counted and suspended in Hank's balanced salt solution (“HBSS”) to the desired concentration.
Cells were then washed in cold distilled water and diluted with HBSS to a concentration of 100 organisms/ml. One-milliliter aliquots were then dispensed on blood agar plates and incubated for 48 hours at 37° C. The organism's viability was estimated from the number of colonies formed.
[…] The effects of forskolin and ddAdo on the ability of C. albicans to form colonies were determined according to the procedures described in Example II.

C=C[C@@]1(C)CC(=O)[C@]2(O)[C@@]3(C)[C@@H](O)CCC(C)(C)[C@@H]3[C@H](O)[C@H](OC(C)=O)[C@@]2(C)O1 [forskolin, reference compound]
growth of C. albicans relative to the control group: significantly inhibited
